# Source: PMC5996148
# The list shows a part of the results.
# What was measured:
# Assay in all cases: protein microarray (ProtoArray v5.0), streptavidin-Alexa Fluor 647
# Details in all cases: 3'-biotin; 20 mM Tris (pH 7.5), 5 mM MgCl2, 100 mM KCl, 0.1% Tween-20, A/T-rich and random oligonucleotide blockers; temperature not stated; high values mean tight binding
# [1] = test system: Deoxycytidine kinase (human)
# [2] = test system: Deoxycytidylate deaminase (human)
# [3] = test system: Diacylglycerol kinase epsilon (human)
# [4] = test system: Differentially expressed in FDCP 6 homolog (human)
# [5] = test system: Dihydroorotate dehydrogenase, mitochondrial (human)
# [6] = test system: Diphosphoinositol polyphosphate phosphohydrolase 3-alpha (human)
# [7] = test system: Docking protein 6 (human)
# [8] = test system: Dolichol-phosphate mannosyltransferase subunit 3 (human)
# [9] = test system: Double C2-like domain-containing protein alpha (human)
# [10] = test system: Down syndrome critical region protein 8 (human)
sequence,measurement,setting,value
GGGAGGCTGAGGCAGG [G4-1 biotinylated (PQS2)],binding signal,[1],-0.343 z-score
same,binding signal,[2],-0.31 z-score
same,binding signal,[3],-0.301 z-score
same,binding signal,[4],-0.361 z-score
same,binding signal,[5],-0.331 z-score
same,binding signal,[6],-0.286 z-score
same,binding signal,[7],-0.312 z-score
same,binding signal,[8],-0.281 z-score
same,binding signal,[9],-0.265 z-score
same,binding signal,[10],-0.344 z-score
